# Source: the supplement of paper PMC3334620
# Over roughly 33,000 sequences, “E-score (-0.5 to 0.5)” has its median near -0.0014; the highest 2% begin near 0.25. The list shows a part of the results.
# Biological target: T1, Cad1 (UniProt P24813)
# T1 sequence: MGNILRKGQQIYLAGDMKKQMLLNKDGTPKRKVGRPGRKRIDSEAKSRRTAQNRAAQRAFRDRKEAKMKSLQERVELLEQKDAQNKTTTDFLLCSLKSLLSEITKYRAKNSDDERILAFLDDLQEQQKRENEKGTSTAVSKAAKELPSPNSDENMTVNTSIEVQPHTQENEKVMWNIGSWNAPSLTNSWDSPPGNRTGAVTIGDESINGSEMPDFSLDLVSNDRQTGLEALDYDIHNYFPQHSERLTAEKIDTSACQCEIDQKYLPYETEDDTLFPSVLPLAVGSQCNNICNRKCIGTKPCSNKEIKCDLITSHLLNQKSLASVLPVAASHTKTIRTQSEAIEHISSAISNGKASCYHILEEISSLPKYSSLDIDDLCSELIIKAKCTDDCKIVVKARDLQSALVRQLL
# Assay: PBM E-score (8-mer binding enrichment) (E-score (-0.5 to 0.5)); higher = stronger / more preferred TF binding
# Conditions: protein concentration: 100 nM; construct: GST-full length
# Procedure, shortened: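 Masliner-normalised scans of fluorescent anti-GST signal were the basis for scoring. That signal came from GST-tagged yeast transcription factors applied at about 100-200 nM to double-stranded universal all-10-mer Agilent arrays on fresh or once-stripped slides. Each ungapped eight-base word, pooled with its reverse complement, received an E-score from the Universal PBM Analysis Suite.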
row,Sequence,PBM E-score
1,TGCAGGAA,0.0783
2,GTAGATTA,0.219
3,CTAGACAC,0.00544
4,CGATGAAA,0.0557
5,AGATGCCT,-0.147
6,CAAATCAC,0.0907
7,AGTAAACG,0.0285
8,CATATGGG,0.137
9,GCCGTCCC,-0.236
10,CCGATTAA,0.159
11,GTCGCACA,-0.0519
12,GCGCCAAA,0.103
13,CCTCGGAC,0.0537
14,ACTCGACG,0.0798
15,GCCTCCGC,-0.105
16,ACATCGTC,0.19
17,CATTGTCC,0.104
18,AATACTTC,0.158
19,CGTAACCC,-0.0539
20,AACAGGAA,-0.104
21,CCAGTCCA,-0.251
22,CCCAAATC,-0.139
23,CATCTGTC,-0.134
24,AGCTGCAG,0.0911
25,GTTTTAGA,0.0184

row,Sequence,PBM E-score
1,CCTAAAGG,-0.194
2,CCAGGATC,0.037
3,ATCACTCG,0.0231
4,AGCAGGTC,0.054
5,AGACTGCA,-0.193
6,CACTAGGA,-0.277
7,TATTGGCA,0.0632
8,AAGCACTA,-0.0887
9,TCGCCCCA,-0.156
10,AACTACGA,0.0336
11,GCTCCTTA,-0.0502
12,CCCGAGCC,-0.22
13,CTAACACA,0.249
14,CCACTACC,-0.0942
15,CCTCCGAC,-0.155
16,GGAGCGCC,-0.252
17,CTATTATA,0.068
18,ATGTTAGA,-0.06
19,AAGCCAAG,-0.155
20,CATCGATG,0.169
21,ATAGTACG,0.0814
22,ATTGGACA,0.139
23,CAATGATC,-0.0359
24,CACACGGA,-0.0635
25,GGGCTACC,-0.114

row,Sequence,PBM E-score
1,CTGCGACA,0.113
2,CCTTACCG,-0.0548
3,ATATTGTA,0.0624
4,CTCAAGAG,-0.316
5,AGCTCTAA,-0.0645
6,AGCATGCA,0.00687
7,AGACACCT,-0.157
8,CACTAATA,0.183
9,ATAGTTAG,0.119
10,GTATTGTA,0.141
11,TAGGATGA,0.0206
12,ATGTAGAC,-0.145
13,ACCGCAGC,-0.0641
14,ACGCAGAA,0.122
15,ACAATTGA,0.222
16,GTTTAAGA,-0.145
17,CCCGCTCG,-0.256
18,CTCTCAGC,-0.178
19,AGTTTGAA,0.073
20,ATACCAGG,0.056
21,AGATTAAC,-0.0123
22,CCACGGGC,-0.107
23,CGTATGAC,0.00313
24,ATAATCAG,0.225
25,CATGGGTA,-0.202

row,Sequence,PBM E-score
1,GATGAAGC,-0.0387
2,GGCTCGAA,0.0808
3,TCTACCCA,0.0629
4,GAGGACCC,-0.144
5,GTCTGGTA,0.104
6,ATTGACAA,0.0764
7,TATACCGA,0.114
8,CCAGCAAA,0.108
9,AAATTTGC,0.182
10,AAATACTA,0.0416
11,CACGTAAG,-0.0423
12,CCGCTGTC,0.00182
13,AAGCCTGC,-0.05
14,CGAGTCCC,-0.108
15,ACATTGTC,0.292
16,AAACCCAC,0.131
17,ACCTAGCG,0.04
18,AGGGGCGG,-0.0952
19,ATAGCTGG,-0.122
20,CAATAGGG,-0.0436
21,CACGTGCG,-0.12
22,CACCTCCA,-0.00736
23,CTTGTTGC,-0.0146
24,ATTAGCCG,0.0767
25,TAACAACA,0.161

row,Sequence,PBM E-score
1,ACCATAGC,-0.067
2,AAAAGCAC,0.0589
3,ACACGTTA,0.017
4,AAAAATTC,0.131
5,ACGTATAT,0.0978
6,CCCGAAAC,-0.0765
7,TGCCGACA,0.107
8,TACAAGCA,0.0886
9,CCATTGTA,0.0618
10,AATGCACT,0.0352
11,TGATGCAA,0.0945
12,GACAAACA,0.176
13,ATCTGGTC,0.0734
14,CATCCCCG,-0.0741
15,CTGAAGGC,-0.237
16,TATTTAGA,0.119
17,GTCTAGAA,-0.0373
18,CAAAATTC,0.2
19,ACCCGGAA,0.138
20,GAAAGTCA,0.0255
21,AAAGCCCA,0.072
22,AAGAATTA,0.113
23,ATGATAGC,0.0595
24,TCACGAGA,-0.102
25,ACTGAAGC,0.00638

# Fetched one by one from above:
row,Sequence,PBM E-score
8,TACAAGCA,0.0886
19,ACCCGGAA,0.138
1,ACCATAGC,-0.067
15,CTGAAGGC,-0.237
17,GTCTAGAA,-0.0373
25,ACTGAAGC,0.00638

# Later entries

row,Sequence,PBM E-score
1,CACTCCTG,-0.123
2,ACAATAAT,0.232
3,CGACCTCG,0.0954
4,AGCCGCAA,-0.175
5,CCGCTTTC,-0.129
6,GCACCAGA,-0.163
7,ATAGTCAG,0.0123
8,CAAACGCG,0.181
9,GGGCTTCA,-0.138
10,ATGCAAAG,-0.018
11,GCGTTAGA,0.0542
12,AATTAACG,0.119
13,ATTACCTC,0.0779
14,AACGCGAC,0.0146
15,ACAGGATC,-0.24
16,ACGTTTAG,0.0419
17,GCCAATTA,-0.0568
18,CGTGTGTC,0.0456
19,ATGCTTCG,0.0307
20,CGGGACTA,-0.22
21,GAAACGAA,0.181
22,AAAATATG,0.211
23,CTCACGTC,0.0213
24,CGAAGGGC,0.0641
25,CCCAATTA,0.128

row,Sequence,PBM E-score
1,CCACATGA,-0.0563
2,GAAGTGAC,0.0197
3,AGGAAACT,-0.118
4,ACCCTATA,-0.129
5,ATTCCATC,0.125
6,GGATGCGA,-0.128
7,CTTATCAC,0.0836
8,GGCCTTAC,-0.166
9,CGGGCGGA,-0.0604
10,AAAGATAA,0.2
11,CAGGACCG,-0.124
12,CTACAGGA,0.0522
13,AAATGATC,-0.133
14,CGGGCTCC,-0.153
15,AGACAGCG,-0.00799
16,GTCGGTAA,-0.116
17,GTTGCGAA,0.119
18,TCGGGCAA,0.123
19,AGTCGGCC,-0.0163
20,GGGTTTAA,0.0616
21,ATATAAAC,0.212
22,CGCACGGC,-0.00041
